# In PMC6405874, “Development of a novel short 12-meric papiliocin-derived peptide that is effective against Gram-negative sepsis” (Scientific Reports, 2019):
# No end group written: not given here.
# Legend:
# [1] = tested on: Gram-positive bacteria; settings: HC10 / GM of Gram-positive MICs
# Method: (§1) The antimicrobial activities of Pap12 peptides were tested against four standard Gram-negative bacteria (E. coli, Pseudomonas aeruginosa, Acinetobacter baumannii, and Salmonella typhimurium), three standard Gram-positive bacteria (Staphylococcus aureus, Bacillus subtilis, and Staphylococcus epidermidis), and five MDR bacteria (MDREC CCARM 1229, MDRPA CCARM 2002, MDRAB CCARM 12035, MDRST CCARM 8007, and MRSA CCARM 3126) using the microbroth dilution method. The relative antibacterial activities were compared based on geometric means of MICs (GM).
# (§2) The therapeutic index (TI) was calculated (Table 2) using HC10, the peptide concentration required to induce 10% hemolysis.
# (§3) Peptides were treated with 2 × 10^6 CFU/mL bacterial suspensions in 1% peptone media for 16 h at 37 °C.
# [2] = tested on: Gram-negative bacteria; settings: HC10 / GM of Gram-negative MICs
# Method: as §1, §2, §3
Molecule,"Therapeutic index = HC10/MIC, Gram-positive bacteria [1]","Therapeutic index = HC10/MIC, Gram-negative bacteria [2]"
"CC[C@H](C)[C@H](NC(=O)CN)C(=O)NCC(=O)N[C@@H](C)C(=O)N[C@H](C(=O)N[C@@H](CC(C)C)C(=O)N[C@@H](CCCCN)C(=O)N[C@H](C(=O)N[C@@H](CC(C)C)C(=O)N[C@H](C(=O)N[C@H](C(=O)NCC(=O)N[C@@H](CC(C)C)C(=O)N1CCC[C@H]1C(=O)N[C@@H](C)C(=O)N[C@@H](CC(C)C)C(=O)N[C@H](C(=O)N[C@@H](CO)C(=O)N[C@@H](Cc1c[nH]c2ccccc12)C(=O)N[C@H](C(=O)N[C@@H](CCCCN)C(=O)N[C@@H](CCCNC(=N)N)C(=O)N[C@@H](CCCCN)C(=O)N[C@@H](CCCNC(=N)N)C(=O)N[C@@H](CCC(N)=O)C(=O)N[C@@H](CCC(N)=O)C(N)=O)[C@@H](C)CC)[C@@H](C)CC)[C@@H](C)O)[C@@H](C)O)C(C)C)C(C)C [Melittin, reference compound]",0.3,0.1
RWKIFKKAAKKA-NH2 [Pap12-4],9.1,9.1
RWKIFKKAAKKG-NH2 [Pap12-2],10.0,11.1
RWKIFKKIEKVG-NH2 [Pap12-1],3.8,5.7
RWKIFKKVVKKA-NH2 [Pap12-5],14.3,14.3
RWKIFKKVVKKG-NH2 [Pap12-3],14.3,12.5
RWKIFKKVVKKW-NH2 [Pap12-6],14.3,16.7
